# According to publication PMC7819943, “Rice protein-binding microarrays: a tool to detect cis-acting elements near promoter regions in rice”:
# The chains behind the UniProt entries cited, without tags or fusion partners.
# UniProt Q0JBA9, entry or part of it: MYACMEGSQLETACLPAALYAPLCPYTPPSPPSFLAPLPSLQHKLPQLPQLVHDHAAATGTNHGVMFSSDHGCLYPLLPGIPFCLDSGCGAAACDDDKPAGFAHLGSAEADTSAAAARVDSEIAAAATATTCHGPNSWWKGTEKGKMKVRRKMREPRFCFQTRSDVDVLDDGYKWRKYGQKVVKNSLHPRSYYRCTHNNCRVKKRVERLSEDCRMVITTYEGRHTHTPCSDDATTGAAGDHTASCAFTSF
# The list shows a part of the results.
# Target: OsWRKY34 (Oryza sativa, UniProt Q0JBA9 1-250)
# Assay: protein-binding microarray (RPBM); PBS, 2% BSA, 51.3 ng/ul salmon testes DNA, 50 uM zinc acetate, 200 nM TF, 25 C, 1 h; high values mean tight binding
# Conditions: protein: recombinant; tags: N-terminal polyhistidine and DsRed monomer fusion (pET32a); label: CyDye5-dUTP incorporated in the synthesized complementary strand; 3' TTTTT single-stranded linker to array surface; dsDNA, one strand shown
# In short: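 An Axon 4000B scanner gave the binding signal as per-feature fluorescence intensity in arbitrary units. This followed washing of a custom Agilent array that had been incubated for 1 h at 25 °C with 200 nM protein in PBS, 2% BSA, salmon testes DNA and 50 µM zinc acetate. The proteins were transcription factors fused at the N-terminus to polyhistidine and DsRed, expressed in E. coli BL21-CodonPlus and purified on Ni–NTA.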
row,Sequence,binding signal
1,TACTGTCAATTTTCACAACCTCTAGAGGATCTCCATTGACCGGAGTCACCTAGTGCAG,8170 fluorescence intensity (a.u.)
2,CTACGATACACCGCTTGTTTCTGTTTTTCTTATCTAGGAACGGAGTCACCTAGTGCAG,9180 fluorescence intensity (a.u.)
3,AAGAAACAGATCCAACCAATTCGCTCGCTTAAGCCGCCGGCGGAGTCACCTAGTGCAG,8330 fluorescence intensity (a.u.)
4,CGCACCTCCTTACGCTCACCGTACACAAGATCAAAATTTTCGGAGTCACCTAGTGCAG,9880 fluorescence intensity (a.u.)
5,CCACTGACTACTGATGGGTGTGTTGATAGTGTTTTGTCAGCGGAGTCACCTAGTGCAG,8870 fluorescence intensity (a.u.)
6,ATTGATTTTTTTTCCATATTTAATCCTTTATGTATGTGTCCGGAGTCACCTAGTGCAG,8060 fluorescence intensity (a.u.)
7,TTAAATGTGTGATTTGTTTTGTTATTAGTCTACGTTTAATCGGAGTCACCTAGTGCAG,8850 fluorescence intensity (a.u.)
8,AACCGCCTAGAGAGTCAAATTGCATCGGTTTCAATAGTTTCGGAGTCACCTAGTGCAG,8070 fluorescence intensity (a.u.)
9,GTTTCCTTCGTTTCAGATTACTCATTATTTTAGCTTTTTTCGGAGTCACCTAGTGCAG,13800 fluorescence intensity (a.u.)
10,CATCCGTTCCATTTTAAGTGCAACTTTCCACGCTCAATTTCGGAGTCACCTAGTGCAG,10500 fluorescence intensity (a.u.)
11,TCTTCATCGCCCACGTGGTCCACTCCGCCGCGAGCCGCGCCGGAGTCACCTAGTGCAG,11700 fluorescence intensity (a.u.)
12,CGCCGCCGCCACCGCCACCGCCGCCGCCGCCTTGCGCCTCCGGAGTCACCTAGTGCAG,8700 fluorescence intensity (a.u.)
13,CGCAAACCGTGACTTTCCGTGGGCCCCACCACCCCACCACCGGAGTCACCTAGTGCAG,12000 fluorescence intensity (a.u.)
14,CCGTTGTTGTGTGTGTTCATGTGCCTCTGTACACATCAGACGGAGTCACCTAGTGCAG,9670 fluorescence intensity (a.u.)
15,CTCTTGATTGTATCCTTAGGCACTTTGTATATTCTCGAGTCGGAGTCACCTAGTGCAG,8540 fluorescence intensity (a.u.)
16,TAACGCGATCCACTTGTGCCTCTTGTCGGTCCAGTTTGAACGGAGTCACCTAGTGCAG,8060 fluorescence intensity (a.u.)
17,ACCATTTCATAGTAGTTACAAATTTAAAATGTTTGATTCCCGGAGTCACCTAGTGCAG,8380 fluorescence intensity (a.u.)
18,GGAGTGGATGTGTGGAGGGGTTGGAGTTGGAATGTGAGATCGGAGTCACCTAGTGCAG,13200 fluorescence intensity (a.u.)
19,CTCTGTATTTTGTTAGGCAAATCTGCAATCGGAGAAGTCACGGAGTCACCTAGTGCAG,8690 fluorescence intensity (a.u.)
20,ACACACTCCCACGCACTTTGCCCTTCTCTTCACGGGGCTTCGGAGTCACCTAGTGCAG,10600 fluorescence intensity (a.u.)
21,AAAGAGTGGAAGCAATGTGGAGTTATATGTTTAGCAAAACCGGAGTCACCTAGTGCAG,8210 fluorescence intensity (a.u.)

# Quoted from the listing:
# CCGTTGTTGTGTGTGTTCATGTGCCTCTGTACACATCAGACGGAGTCACCTAGTGCAG | binding signal: 9670 fluorescence intensity (a.u.)
# CCACTGACTACTGATGGGTGTGTTGATAGTGTTTTGTCAGCGGAGTCACCTAGTGCAG | binding signal: 8870 fluorescence intensity (a.u.)

# Continued:

row,Sequence,binding signal
1,AGAGTCTCCCTTGCGCCACGTTTCTCGCGTCCGTTCTTCTCGGAGTCACCTAGTGCAG,9270 fluorescence intensity (a.u.)
2,GACTCCTCCTGCTCTGTTTGTTCGAGTAATTAATTAAGCTCGGAGTCACCTAGTGCAG,10300 fluorescence intensity (a.u.)
3,CAGCAGCCGCCTCCGCCGCCGCCACCGCCGCCGCGCGGTCCGGAGTCACCTAGTGCAG,9340 fluorescence intensity (a.u.)
4,TTTGCCGCACCACAGCGTAGTCTCGCCTCGCCTTCCGGAACGGAGTCACCTAGTGCAG,12600 fluorescence intensity (a.u.)
5,TATCATTATATAGAAAGCGTTGCGTTGTTGACTCGTTGTACGGAGTCACCTAGTGCAG,8490 fluorescence intensity (a.u.)
6,TTCATGTATAGGAACCATCTTTGCTTAGTTTTTGAATCTCCGGAGTCACCTAGTGCAG,9340 fluorescence intensity (a.u.)
7,ATTCCAACGCTACGTATCCAACCGCGATCGCTTCGTCAAACGGAGTCACCTAGTGCAG,9320 fluorescence intensity (a.u.)
8,CTGTTTGGTAGAGTTTGCCACTTTCGAATGAAATTCGAACCGGAGTCACCTAGTGCAG,10100 fluorescence intensity (a.u.)
9,GCGACCCAAATGACGTCCACGTGTAAATATCTTCGCTCCGCGGAGTCACCTAGTGCAG,8360 fluorescence intensity (a.u.)
10,GATATCGAATGATTGTACTCGAAACACATGCCATGCTTCTCGGAGTCACCTAGTGCAG,8150 fluorescence intensity (a.u.)
11,GACAGTTTCCCGCGCTTTTTTTTTGCCCCTCTCTCCGGCGCGGAGTCACCTAGTGCAG,11300 fluorescence intensity (a.u.)
12,GACTTCAGATAGTTCTCCTGGTGCTGTTTTTATCGTCCAGCGGAGTCACCTAGTGCAG,9990 fluorescence intensity (a.u.)
13,AAAAACTGGGCCAGCTTTTTGTTTTTTTTACCACCCACAGCGGAGTCACCTAGTGCAG,9010 fluorescence intensity (a.u.)
14,AAGCCACACGAGCCACCGGAAGCTTGACATCACAATTAAACGGAGTCACCTAGTGCAG,8170 fluorescence intensity (a.u.)
15,GATTTGGTTTTCGTCTGTTTATCCCAAGTTAAACTGCTATCGGAGTCACCTAGTGCAG,12200 fluorescence intensity (a.u.)
16,TGAAACTAGTGCAGCACACCTACTTTGGTTTCTTGATTTTCGGAGTCACCTAGTGCAG,8060 fluorescence intensity (a.u.)
17,TCCACCTTGGAAAACGGCTCACGCAGCATCCTTTGTTTTTCGGAGTCACCTAGTGCAG,9520 fluorescence intensity (a.u.)
18,TTTCTTTTCTTTTGAAATCATATACTTATTATTCTTCTGTCGGAGTCACCTAGTGCAG,9080 fluorescence intensity (a.u.)
19,AGTCCGCGTACGTCCGCACCCGCCCGCTGCATGCCACCTACGGAGTCACCTAGTGCAG,8140 fluorescence intensity (a.u.)
20,GTGGCGCGAGGGGAGGGAAGGGTAGGGCGGCGCGGCGGCGCGGAGTCACCTAGTGCAG,9730 fluorescence intensity (a.u.)
21,CCCTCTCTCACGACAACATCATCACTTCATTATCACATGACGGAGTCACCTAGTGCAG,9350 fluorescence intensity (a.u.)
